Record: PubChem BioAssay AID1259425 (University of Nebraska Medical Center, 2018)
This is an unselected part of about 14,000 reagents tested. Some reagents were tested in more than one well and are listed for each. The record does not give: the time to read-out.

Aim: 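Find knockdowns that reproduce the gene expression pattern seen when KSR1 is lost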 (primary screen)
System: HCT116 human colon cancer cells
Knock-down reagent: siRNA pool against human genes, 50 nM siRNA
Detection: 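mRNA of six signature genes measured together by branched-DNA assay after 50 nM siRNA pool, blank removed, divided by geometric mean of two housekeeping genes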
Direction: BNIP3L mRNA: higher = more BNIP3L transcript after knockdown; NDRG1 mRNA: higher = more NDRG1 transcript after knockdown; BNIP3 mRNA: higher = more BNIP3 transcript after knockdown; ALDOC mRNA: higher = more ALDOC transcript after knockdown; ACSL5 mRNA: higher = more ACSL5 transcript after knockdown

| gene symbol | BNIP3L mRNA, set 1 | NDRG1 mRNA, set 1 | BNIP3 mRNA, set 1 | ALDOC mRNA, set 1 | ACSL5 mRNA, set 1 |
| --- | --- | --- | --- | --- | --- |
| FPGT (fucose-1-phosphate guanylyltransferase) | 0.116 | 0.695 | 0.235 | 0.0424 | 0.251 |
| TOMM34 (translocase of outer mitochondrial membrane 34) | 0.123 | 0.155 | 0.211 | 0.0158 | 0.299 |
| CLDN16 (claudin 16) | 0.0997 | 0.0769 | 0.287 | 0.0385 | 0.127 |
| SLC2A5 | 0.122 | 0.154 | 0.29 | 0.108 | 0.225 |
| TFAP2B (transcription factor AP-2 beta) | 0.0589 | 0.124 | 0.223 | 0.0124 | 0.13 |
| CRYBA4 (crystallin beta A4) | 0.114 | 0.0547 | 0.392 | 0.00961 | 0.0674 |
| FEM1B (fem-1 homolog B) | 0.0531 | 0.0718 | 0.214 | 0.0245 | 0.157 |
| KLHL28 (kelch like family member 28) | 0.148 | 0.297 | 0.461 | 0.0219 | 0.122 |
| ZWINT (ZW10 interacting kinetochore protein) | 0.0842 | 1.03 | 0.264 | 0.0217 | 0.138 |
| MOXD1 (monooxygenase DBH like 1) | 0.0845 | 0.08 | 0.575 | 0.0239 | 0.126 |
| FAR1 (fatty acyl-CoA reductase 1) | 0.254 | 0.212 | 0.292 | 0.0569 | 0.288 |
| TBC1D24 (TBC1 domain family member 24) | 0.0953 | 0.261 | 0.353 | 0.0443 | 0.155 |
| XPNPEP1 (X-prolyl aminopeptidase 1) | 0.111 | 0.149 | 0.239 | 0.0131 | 0.113 |
| BANP (BTG3 associated nuclear protein) | 0.0566 | 0.0655 | 0.245 | 0.0139 | 0.29 |
| ENO1 (enolase 1) | 0.0704 | 0.0595 | 0.214 | 0.0183 | 0.102 |
| CDC42EP4 (CDC42 effector protein 4) | 0.0634 | 0.287 | 0.478 | 0.0128 | 0.26 |
| ADGRG4 (adhesion G protein-coupled receptor G4) | 0.106 | 0.214 | 0.335 | 0.0298 | 0.233 |
| TUFM (Tu translation elongation factor, mitochondrial) | 0.0364 | 0.235 | 0.236 | 0.0237 | 0.247 |
| GNAI3 (G protein subunit alpha i3) | 0.109 | 0.126 | 0.284 | 0.0305 | 0.117 |
| NR1D2 (nuclear receptor subfamily 1 group D member 2) | 0.0992 | 0.104 | 0.14 | 0.0201 | 0.162 |
| CYP26A1 (cytochrome P450 family 26 subfamily A member 1) | 0.104 | 0.222 | 0.515 | 0.0506 | 0.251 |
| MIOS (meiosis regulator for oocyte development) | 0.107 | 0.34 | 0.251 | 0.0153 | 0.225 |
| STK31 (serine/threonine kinase 31) | 0.0667 | 0.446 | 0.213 | 0.0116 | 0.216 |
| CALD1 (caldesmon 1) | 0.0869 | 0.144 | 0.266 | 0.0256 | 0.156 |
| ANAPC5 (anaphase promoting complex subunit 5) | 0.0648 | 0.147 | 0.242 | 0.0289 | 0.164 |
| ENTPD6 (ectonucleoside triphosphate diphosphohydrolase 6) | 0.0472 | 0.0684 | 0.227 | 0.0183 | 0.16 |
| RYR3 (ryanodine receptor 3) | 0.117 | 0.561 | 0.325 | 0.0372 | 0.295 |
| DIAPH2 (diaphanous related formin 2) | 0.0562 | 0.174 | 0.292 | 0.0178 | 0.206 |
| SIM2 (SIM bHLH transcription factor 2) | 0.0878 | 0.12 | 0.344 | 0.0191 | 0.213 |
| NSUN5 (NOP2/Sun RNA methyltransferase 5) | 0.183 | 0.174 | 0.356 | 0.0512 | 0.107 |
| SSB (small RNA binding exonuclease protection factor La) | 0.161 | 0.153 | 0.261 | 0.0435 | 0.262 |
| H1-5 (H1.5 linker histone, cluster member) | 0.183 | 0.364 | 0.35 | 0.0302 | 0.107 |
| CGN (cingulin) | 0.17 | 0.26 | 0.333 | 0.0612 | 0.201 |
| PAFAH2 (platelet activating factor acetylhydrolase 2) | 0.0811 | 0.334 | 0.32 | 0.0322 | 0.125 |
| VPS26A (VPS26 retromer complex component A) | 0.0328 | 0.0684 | 0.2 | 0.0202 | 0.176 |
| VCL (vinculin) | 0.0879 | 0.11 | 0.259 | 0.0135 | 0.186 |
| NMNAT2 (nicotinamide nucleotide adenylyltransferase 2) | 0.0601 | 0.109 | 0.307 | 0.00624 | 0.16 |
| MEPCE (methylphosphate capping enzyme) | 0.327 | 1.9 | 0.465 | 0.109 | 0.455 |
| KNDC1 (kinase non-catalytic C-lobe domain containing 1) | 0.083 | 0.188 | 0.243 | 0.0263 | 0.23 |
| LRRFIP1 (LRR binding FLII interacting protein 1) | 0.14 | 0.18 | 0.294 | 0.0394 | 0.128 |
| TMEM43 (transmembrane protein 43) | 0.171 | 0.223 | 0.394 | 0.0455 | 0.176 |
| TNPO2 (transportin 2) | 0.156 | 0.439 | 0.41 | 0.0378 | 0.139 |
| TNPO2 (transportin 2) | 0.141 | 0.232 | 0.339 | 0.0387 | 0.117 |
| MED26 (mediator complex subunit 26) | 0.0978 | 0.253 | 0.314 | 0.0401 | 0.135 |
| SETDB2 (SET domain bifurcated histone lysine methyltransferase 2) | 0.112 | 0.231 | 0.34 | 0.0192 | 0.151 |
| OTOR (otoraplin) | 0.143 | 0.344 | 0.307 | 0.0182 | 0.211 |
| OAZ1 (ornithine decarboxylase antizyme 1) | 0.108 | 0.113 | 0.244 | 0.0208 | 0.0854 |
| HABP4 (hyaluronan binding protein 4) | 0.0821 | 0.277 | 0.355 | 0.0127 | 0.229 |
| VAV3 (vav guanine nucleotide exchange factor 3) | 0.0615 | 0.108 | 0.272 | 0.0204 | 0.212 |
| SP1 (Sp1 transcription factor) | 0.104 | 0.114 | 0.264 | 0.0163 | 0.228 |

Look-ups from the list:
CGN (cingulin), NDRG1 mRNA, set 1 → 0.26
For “BNIP3L mRNA, set 1”, SP1 (Sp1 transcription factor) is entered as 0.104
Entry for CLDN16 (claudin 16) under “NDRG1 mRNA, set 1”: 0.0769
Entry for LRRFIP1 (LRR binding FLII interacting protein 1) under “BNIP3 mRNA, set 1”: 0.294
NR1D2 (nuclear receptor subfamily 1 group D member 2), NDRG1 mRNA, set 1 → 0.104
